The values that follow come from patent US20230374071A1 (Dignify Therapeutics, LLC, priority 2020, published 2023).

Non-standard residues stand in square brackets, D forms with d. No end group written: not given here. Nle = CCCC[C@H](N)C(=O)O; βAla = NCCC(=O)O

The data set can be described thus: peptide made by a vendor (Fmoc solid-phase peptide synthesis). The settings on record: whole synthesis.
Turning to Asp-Arg-Phe-Val-gc-Met-NH2, the “final HPLC purity” value came to 97.2%. To Asp-Arg-Phe-Val-gc-Nle-NH2 belongs 97.4%; to Asp-Lys-Phe-Val-gc-Met-NH2, 97.3%; to Asp-Lys-Phe-Val-gc-Nle-NH2, 97.9%. For Asp-Ser-Phe-Val-gc-Met-NH2, the “final HPLC purity” value was 96.7%. To Asp-Ser-Phe-Val-gc-Nle-NH2 belongs 96.3%; to “H-DSFV[βAla]L[Nle]-NH2 (N-terminus assumed; SMILES CCCC[C@H](NC(=O)[C@H](CC(C)C)NC(=O)CCNC(=O)[C@@H](NC(=O)[C@H](Cc1ccccc1)NC(=O)[C@H](CO)NC(=O)[C@@H](N)CC(=O)O)C(C)C)C(N)=O)”, 95.0%; to “H-KDSFV[βAla]LM-NH2 (N-terminus assumed; SMILES CSCC[C@H](NC(=O)[C@H](CC(C)C)NC(=O)CCNC(=O)[C@@H](NC(=O)[C@H](Cc1ccccc1)NC(=O)[C@H](CO)NC(=O)[C@H](CC(=O)O)NC(=O)[C@@H](N)CCCCN)C(C)C)C(N)=O)”, 97.0%. KDSFV[βAla]L[Nle]-NH2: the “final HPLC purity” value came out at 98.6%. For Lys-Asp-Ser-Phe-Val-gc-Nle-NH2, the “final HPLC purity” value stood at 98.3%.
